From US20080249024A1, “Peptides facilitating or inhibiting a nterograde transport” (priority 2006, published 2008)
Results are given in words; binding and its absence hold for the method and conditions named. Binding seen in cells or lysates may run through a third protein. Some entries that bind do so weakly or less than the wild type.

Sequences of proteins named here, by UniProt entry; tags and fusion partners are left off. Residues count along the entry.
UniProt Q2PQA9, residues 2-963: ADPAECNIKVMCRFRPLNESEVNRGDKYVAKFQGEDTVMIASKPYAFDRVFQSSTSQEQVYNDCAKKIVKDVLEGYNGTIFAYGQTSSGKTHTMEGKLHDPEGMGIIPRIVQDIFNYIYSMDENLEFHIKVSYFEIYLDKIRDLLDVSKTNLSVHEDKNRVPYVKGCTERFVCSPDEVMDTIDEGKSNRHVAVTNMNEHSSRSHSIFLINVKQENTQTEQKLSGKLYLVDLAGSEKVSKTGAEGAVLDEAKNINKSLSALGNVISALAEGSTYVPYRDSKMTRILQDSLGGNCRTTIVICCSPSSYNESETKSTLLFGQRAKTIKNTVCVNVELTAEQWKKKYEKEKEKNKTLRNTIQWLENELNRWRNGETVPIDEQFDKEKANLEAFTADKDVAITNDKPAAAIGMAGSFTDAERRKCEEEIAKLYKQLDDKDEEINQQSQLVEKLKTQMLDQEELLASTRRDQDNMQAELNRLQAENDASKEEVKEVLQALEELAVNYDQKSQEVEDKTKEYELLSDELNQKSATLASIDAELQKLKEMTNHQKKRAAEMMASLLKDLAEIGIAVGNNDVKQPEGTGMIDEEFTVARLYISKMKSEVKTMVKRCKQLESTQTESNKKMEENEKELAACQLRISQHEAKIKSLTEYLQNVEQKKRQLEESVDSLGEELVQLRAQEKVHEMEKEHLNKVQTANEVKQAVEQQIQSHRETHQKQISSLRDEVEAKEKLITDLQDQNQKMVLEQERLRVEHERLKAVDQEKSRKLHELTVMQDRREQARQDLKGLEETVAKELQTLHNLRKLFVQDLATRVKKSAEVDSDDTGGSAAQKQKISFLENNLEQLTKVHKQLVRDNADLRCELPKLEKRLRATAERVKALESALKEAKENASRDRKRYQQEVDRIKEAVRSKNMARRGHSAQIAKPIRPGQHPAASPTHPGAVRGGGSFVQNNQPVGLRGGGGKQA

Assays:
[1] = target: kinesin 1 heavy chain (from rat brain extract) (rat) (UniProt Q2PQA9); assay: peptide-bead pull-down from rat brain extract, Western blot
[2] = target: kinesin 1 heavy chain (from rat brain extract) (rat) (UniProt Q2PQA9); assay: peptide-bead pull-down from rat brain extract, Western blot (figure legend)

How did the binding [1] turn out when GYENPTYKFFEQMQN was run?
Its binding is “binds”.

What about the binding [2] of the same binder?
Its binding is “binds”.
